Measurements published in the supplement of paper PMC6078165.
The reference is the same well before dosing, and untreated signal decays as well.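 Labels refer to human fibroblasts, largely primary: uterine (C12385, HUF), lung (H6013), bone (Hs27A), adrenal (HADF), skin (WS1), plus mammary HMF and breast cancer-associated Hs343T. Cancer lines are basal-like or mesenchymal-like triple-negative breast cancer. The paper counts as hits responses shifting over 3x the replicate standard deviation. The tissue of the other fibroblasts is not given here.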

Test system: BT20
Assay: relative JC-1 red fluorescence (viability) vs pre-drug, coculture with fibroblast (fraction); higher = more viable cancer cells
Procedure: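 JC-1 labelled TNBC cells cocultured 1:1 (1,500 cells each) with CellTrace Violet stained primary or stromal fibroblasts in 384-well plates in FluoroBrite medium, treated with one of 42 anticancer drugs at 0.1, 1, 10 or 100 uM. JC-1 red fluorescence (mitochondrial integrity in cancer cells only) was read by plate reader every 8 h for 72 h. Values are normalised to each well's pre-drug value. The stock of one drug was tenfold lower, so its dose labels may be too high.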

CC(=O)c1c(C)c2cnc(Nc3ccc(N4CCNCC4)cn3)nc2n(C2CCCC2)c1=O [Palbociclib]
relative JC-1 red fluorescence
Conditions | 8 h | 16 h | 24 h | 32 h | 40 h | 48 h | 56 h | 64 h | 72 h
10 µM, coculture fibroblast: C12385 | 0.9024 | 0.862 | 0.905 | 0.851 | 0.805 | 0.786 | 0.769 | 0.741 | 0.716
10 µM, coculture fibroblast: H6013 | 0.852 | 0.771 | 0.938 | 0.974 | 0.932 | 0.921 | 0.928 | 0.9062 | 0.8973
10 µM, coculture fibroblast: H6019 | 0.915 | 0.909 | 0.8151 | 0.811 | 0.733 | 0.797 | 0.709 | 0.775 | 0.768
10 µM, coculture fibroblast: H6076 | 0.744 | 0.9561 | 0.8818 | 0.867 | 0.837 | 0.803 | 0.787 | 0.786 | 0.766
10 µM, coculture fibroblast: H6231 | 0.787 | 0.952 | 0.857 | 0.807 | 0.772 | 0.724 | 0.686 | 0.662 | 0.637
10 µM, coculture fibroblast: HADF | 0.717 | 0.805 | 0.975 | 0.9707 | 0.936 | 0.905 | 0.899 | 0.881 | 0.846
10 µM, coculture fibroblast: HCFa | 0.86 | 0.911 | 0.848 | 0.8384 | 0.776 | 0.797 | 0.7406 | 0.777 | 0.725
10 µM, coculture fibroblast: HCPF | 0.767 | 0.9334 | 0.8657 | 0.8214 | 0.784 | 0.734 | 0.6939 | 0.678 | 0.641
10 µM, coculture fibroblast: HHSteC | 0.792 | 0.9821 | 0.9607 | 0.8986 | 0.826 | 0.801 | 0.7702 | 0.756 | 0.7241
10 µM, coculture fibroblast: HMF | 0.825 | 0.958 | 0.851 | 0.797 | 0.752 | 0.7049 | 0.6661 | 0.635 | 0.6
10 µM, coculture fibroblast: HPFa | 0.809 | 0.874 | 0.868 | 0.892 | 0.9 | 0.874 | 0.846 | 0.828 | 0.788
10 µM, coculture fibroblast: HUF | 0.947 | 0.889 | 0.85 | 0.78 | 0.743 | 0.708 | 0.68 | 0.663 | 0.636
10 µM, coculture fibroblast: Hs5 | 0.899 | 0.951 | 0.902 | 0.857 | 0.819 | 0.789 | 0.7555 | 0.7297 | 0.702
10 µM, coculture fibroblast: Hs27A | 0.905 | 0.86 | 0.772 | 0.81 | 0.83 | 0.89 | 0.831 | 0.899 | 0.834
10 µM, coculture fibroblast: Hs343T | 0.804 | 0.979 | 0.883 | 0.809 | 0.742 | 0.689 | 0.621 | 0.596 | 0.553
10 µM, coculture fibroblast: WS1 | 0.894 | 0.846 | 0.8304 | 0.788 | 0.755 | 0.736 | 0.718 | 0.694 | 0.675
100 µM, coculture fibroblast: C12385 | 0.847 | 0.62 | 0.442 | 0.313 | 0.242 | 0.214 | 0.1893 | 0.173 | 0.156
100 µM, coculture fibroblast: H6013 | 0.376 | 0.238 | 0.246 | 0.177 | 0.147 | 0.123 | 0.117 | 0.0927 | 0.0741
100 µM, coculture fibroblast: H6019 | 0.868 | 0.718 | 0.644 | 0.579 | 0.508 | 0.484 | 0.455 | 0.436 | 0.417
100 µM, coculture fibroblast: H6076 | 0.791 | 0.986 | 0.862 | 0.81 | 0.803 | 0.768 | 0.73 | 0.695 | 0.647
100 µM, coculture fibroblast: H6231 | 0.815 | 0.957 | 0.74 | 0.624 | 0.549 | 0.471 | 0.41 | 0.373 | 0.355
100 µM, coculture fibroblast: HADF | 0.526 | 0.388 | 0.416 | 0.343 | 0.334 | 0.307 | 0.303 | 0.29 | 0.262
100 µM, coculture fibroblast: HCFa | 0.737 | 0.461 | 0.462 | 0.389 | 0.373 | 0.352 | 0.357 | 0.348 | 0.326
100 µM, coculture fibroblast: HCPF | 0.781 | 0.9 | 0.832 | 0.722 | 0.627 | 0.546 | 0.514 | 0.478 | 0.424
100 µM, coculture fibroblast: HHSteC | 0.462 | 0.34 | 0.346 | 0.27 | 0.244 | 0.214 | 0.206 | 0.186 | 0.156
100 µM, coculture fibroblast: HMF | 0.823 | 0.9546 | 0.867 | 0.775 | 0.689 | 0.603 | 0.524 | 0.48 | 0.43
100 µM, coculture fibroblast: HPFa | 0.737 | 0.438 | 0.383 | 0.296 | 0.265 | 0.232 | 0.222 | 0.199 | 0.17
100 µM, coculture fibroblast: HUF | 0.916 | 0.721 | 0.597 | 0.506 | 0.424 | 0.371 | 0.333 | 0.301 | 0.279
100 µM, coculture fibroblast: Hs5 | 0.788 | 0.917 | 0.7784 | 0.707 | 0.684 | 0.657 | 0.606 | 0.564 | 0.536
100 µM, coculture fibroblast: Hs27A | 0.73 | 0.55 | 0.491 | 0.475 | 0.444 | 0.436 | 0.435 | 0.418 | 0.392
100 µM, coculture fibroblast: Hs343T | 0.871 | 0.986 | 0.87 | 0.754 | 0.642 | 0.529 | 0.47 | 0.431 | 0.394
100 µM, coculture fibroblast: WS1 | 0.851 | 0.651 | 0.517 | 0.413 | 0.349 | 0.32 | 0.295 | 0.272 | 0.253
